Out of some 31,000 sequences screened, about 1,400 (4.5%) were called active.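 How the source made its calls: active means median seed-adjusted z-score above 1 or below -1; inactive means the rest.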 Some of the results follow.

The nature of the assay: Novel Modifiers of Survival Motor Neuron (SMN) Protein: Gene Identification via Genome-wide siRNA Screen.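 Further: luminescence tracks full-length SMN protein made from the SMN2 reporter.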 As to conditions: HEK293T SMN2-luciferase reporter, siRNA knockdown, 72 h; actives lie on both sides. In short, it runs like this: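 siRNA screen, 10418 genes ×3 siRNAs; 1 pmol/well, lipid reverse transfection into HEK293T SMN2-luc reporter line. 72 h, 37 °C, 5% CO2; ONE-Glo readout. Data: neg-ctrl normalized, log10, MAD; hit = MAD >1.0 or < -1.0.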
On to GGCUUUUAGCCUGAAGAAATT against PRDM5, for which the median seed-adjusted z-score was inactive: -0.463.
With CACCAUUCCCAAUGAUCUATT against PCBP3 the figure was inactive: -0.0373.
With AGUUAUUGGAUGAAGCCUUTT against SDS the figure was inactive: 0.128; with GGACCUCCACUAUACGCAUTT against PCDHB9, inactive: 0.516; with GGGCGCAUCUAUACGUUCATT against MYO1D, inactive: -0.201.
With GGAAUGAUACCAUACCGAATT against NUP93 the figure was active: 1.01; with CCUCAACUCCUUGCACUCATT against ZMIZ2, inactive: -0.27.
Consider GAUCAGUGUUUAGUUCGAUTT against ARID4A, for which the median seed-adjusted z-score is inactive: 0.601.
For GCUCCUUUCAAGCACCUGATT against ADARB2, the median seed-adjusted z-score was inactive: -0.249.
On to GGAAUUCCAAAUCUACGUATT against ACO1, for which the median seed-adjusted z-score is inactive: -0.197.
Then GGACAAUAUUAUGCUCGAATT against BMPR2, with inactive: 0; and CAUCCAUUCGGGUUACGAATT against PER1, with inactive: 0.176; and GCUCCGAAGUGGUGAUCAATT against CHRM1, with active: 1.1.
With CAGCAGAACGUGUACGAGATT against ZBTB7A, the median seed-adjusted z-score was inactive: -0.344.
Consider CCAACGUGGUCCAACGUUUTT against NME3, for which the median seed-adjusted z-score is inactive: -0.0125.
With GAUGUAUUCGGAAAAUGGATT against ZDHHC7 the figure was inactive: 0.0962.
Take GCACGGAUUCUAACCAGGATT against CDH20: the median seed-adjusted z-score was inactive: -0.397.
Then GACCUGUAAUCGGUAUGAATT against PLSCR3, with inactive: 0.
With GGCAUCGUAUGGUCAAGGATT against LAMA1 the figure was inactive: 0.494.
With GCAGUGAUCUAGUCUCUUUTT against GLRX the figure was inactive: -0.0561; with CGCGUACUACGACACUGAATT against EIF3F, inactive: -0.0214; with GAACGAUUCAGAAAGAGCATT against RAB33B, inactive: -0.758.
As to CUUCAUUACUUAAGUCCAATT against FAM12A, the median seed-adjusted z-score was inactive: 0.08.
Then GCCGGAAGAUUAUGCGGAATT against PNPLA6, with inactive: 0.309; and CCUCAAUCAGAAUCCAGAATT against STRADB, with inactive: 0.21.
With GCAUGAGAAUCGACACCCATT against GABRR1 the figure was inactive: 0.286; with CGAUGUCUGUGGGUAUAAUTT against TFCP2, inactive: 0.14.
With GGAGACAGAGGAUAGUGAATT against CAND2 the figure was inactive: 0.0936.
In the case of GCCUGAAUGGUACUAUACATT against GSTO2, the median seed-adjusted z-score is inactive: 0.142.
With CCACAUGACCAAGCAUACATT against ZNF142 the figure was inactive: 0.111; with GGAUCUGUUUGACAUGCGATT against SHC2, inactive: -0.207; with GGAAGGCAUUACUCACUUATT against SIRT3, inactive: -0.341.
With GCUUCAAGUUGUUCGGACATT against ZNF238, the median seed-adjusted z-score is inactive: -0.491.
With UAACCCUGCUCGGUCCUUUTT against AQP1 the figure was inactive: 0.274; with ACGUGUCGGUCAAAGCUGATT against DHH, inactive: 0; with GACUUUGACAAAGCGAUUATT against SPTAN1, inactive: -0.233.
Then GCCGAGAUCUGACAACAAATT against HDHD1A, with inactive: -0.937.
With GAACUUUGACCGAGCCGUATT against FGD3, the median seed-adjusted z-score is inactive: 0.245.
Then GUCUCAUCGUUUCCACAGATT against RNF4, with inactive: 0.787; and ACAUCGACUUGACUAUUGUTT against SDPR, with inactive: -0.0738.
Then CACCUACGUUUGCACAGAATT against MARK4, with inactive: -0.675; and CCACCAGCGUGAUCAUUGUTT against GALNT6, with inactive: -0.287; and CAGUCAAUGUUGUUCAGUUTT against GARS, with inactive: 0.138.
Then GAAUAUUCCUAUAGUGAUATT against MYOZ2, with inactive: 0.315; and GCUGUAAAACUGAACUGCATT against GNE, with inactive: 0.393; and CUACCACCUUAGUCGUUUATT against GPR137B, with inactive: -0.0897.
Consider AGAACCGAGUGGUCAGCUATT against CCL24, for which the median seed-adjusted z-score is inactive: 0.
Turning to ACAAGCUUCACAAUAUUAATT against GATA3, the median seed-adjusted z-score was inactive: -0.197.
With UCAGGGACGUGGUAUCUGATT against LCN1 the figure was inactive: 0.0607; with AUCCAGUUGACGAAAGUAATT against PCDH11X, inactive: -0.203; with CCCGAAGAACUGAACUUAATT against SULT2A1, inactive: -0.123.
With AAUGCAUUGUGAACCCAUUTT against GNGT2 the figure was inactive: -0.289.
Then GGAUGACAGCGGUAAGGAUTT against HSP90AB1, with inactive: 0.
For the sequence GUAUAGAGAUGCAAGUUGATT against HTR2C, the median seed-adjusted z-score is inactive: -0.115.
Then GCAAUUAAAUCGGAUACUUTT against ANXA3, with inactive: -0.156; and GCAUAACACCUAUCUCACUTT against PLCB3, with inactive: 0.
Then AGCAGGCUUUGAUCAUUGATT against FKBP6, with active: -1.12; and GCACGCUACUUUUACGCGATT against NTNG1, with inactive: 0.0823; and CUGGUACAGUGGACGGAAATT against ATP9A, with inactive: 0.499.
With GGAUGUAUGACAUCUGUAATT against STC1, the median seed-adjusted z-score is active: -1.36.
With GCAUUCUGCAUUCAAGGAATT against ADPGK the figure was inactive: 0.373; with GGAUAUAUCUUUGCGGUUUTT against TOPBP1, inactive: 0.0888.
Then CCUCAGAGGUUUGACCGAATT against B4GALT1, with inactive: 0; and AGACCCUUCUUAUGACUCATT against FLI1, with inactive: 0.255; and CCAAAUCAUUGAUCACAGUTT against GPR39, with inactive: 0.0998.
As to GCUCAUUAGAUUAUCCAGATT against C3AR1, the median seed-adjusted z-score is inactive: -0.916.
With ACAAGUUCCGUAUCGUGAATT against SLC9A1 the figure was inactive: 0; with CACAGGUCUUGGUAACAAATT against PLEKHF1, inactive: 0.055.
With GAUGACUUUUGAUAGUGAATT against ODC1 the figure was active: -1.64; with CUACAAUACCACAAACAAUTT against CRHR1, inactive: -0.67.
With GUCUGGUCAUAACAACCAATT against KCNAB1, the median seed-adjusted z-score was inactive: 0.721.
Consider AGAUGAAUAUUACACGGAATT against COL5A1, for which the median seed-adjusted z-score was inactive: -0.00475.
For the sequence GCCUCUUGCAAUGCGGAAATT against GATA4, the median seed-adjusted z-score is inactive: -0.24.
Then GAAGGACCAUAGACAGAGATT against GRK5, with inactive: -0.377.
With UGCUUUACCUAACUACAGATT against SEMA7A the figure was inactive: 0.0522.
Then GGACAUCGUCUCUUCUUAUTT against HEXA, with inactive: -0.551; and CAUUAUUCAGCCUAACUAUTT against MTG1, with inactive: -0.19.
As to CCACUACACCUUCUACUUUTT against PAQR8, the median seed-adjusted z-score is inactive: 0.
Then GUGAUGUCAUUAGGCAGAATT against CRIP3, with active: 1.7.
Then CCUCAGUGUGGGUAUAAGATT against HIF1A, with inactive: 0.228; and CAAGAUCAUUCAGCAAUAATT against PIP5KL1, with inactive: -0.819.
Then CAGCCGCUACUCAAAGAAATT against BST1, with inactive: -0.28; and GCGGAUUAAAUGAUGAUUATT against ADAMTS18, with inactive: 0.824.
Take GUGUUAACUCUAAUUUACATT against 5-Mar: the median seed-adjusted z-score was inactive: 0.
Turning to CGAUUACUCUUCUUCUGCATT against SYPL1, the median seed-adjusted z-score is inactive: -0.457.
In the case of GGACAUUCGUCAGAUUUAUTT against TEAD1, the median seed-adjusted z-score was active: 1.31.
Then GGCUCUCAGAUUGUUGACATT against GABARAPL2, with inactive: 0.528; and GUACUGACUUUAACAUAGATT against FUT10, with inactive: -0.629; and GGACCGCAGUAAACUUCGATT against MIZF, with inactive: 0.365.
With GCCCUCUGUUGGAUAUCUATT against AZIN1 the figure was active: -1.14.
With AGCCUGUACUUAUGACCGATT against ACTRT1 the figure was inactive: 0; with GCUCGCAUCUAAACACCUUTT against LIG4, inactive: 0.576.
As to CCAGCUUCCUAACCCAAGATT against ACY3, the median seed-adjusted z-score is inactive: 0.568.
With CCACAUCCGAGACAAUCCATT against CRHR2 the figure was inactive: -0.211.
As for CAUCAGGAAUUACGGGACATT against GPR123, the median seed-adjusted z-score is inactive: 0.
Then GGGUUGGAUGUGCUCAUUUTT against NOP14, with inactive: -0.344.
With GCAUCGGCAUUGAAGGCUUTT against ALOX15B the figure was inactive: 0.156.
Consider GGGUCCAUUUGAUAGCCUATT against SNX16, for which the median seed-adjusted z-score was inactive: -0.111.
Then GGAUGUUUAUUACCGGGAUTT against RPN1, with inactive: -0.375.
Consider CUACUGGAGCAACACUGUATT against NDUFA4, for which the median seed-adjusted z-score was inactive: 0.
For the sequence GGAAUUCGCUUUCCUGAAATT against BLVRA, the median seed-adjusted z-score was inactive: 0.212.
Turning to GGAUGGUAAGUGGGCAAGATT against DDI1, the median seed-adjusted z-score was inactive: 0.259.
CGUGGACAGCUGCAGAAAATT against EDIL3: the median seed-adjusted z-score was inactive: 0.
As to CAAGGUCUCCUGUGCUGAATT against MYOG, the median seed-adjusted z-score was inactive: -0.0972.
With CAUCAGUCUUCGAACUCAATT against GPAM the figure was inactive: 0.237; with GAUACAGUGUUGAAAAGUUTT against CST7, inactive: 0.303.
With CCUACAACAUUGUCCUUCUTT against CCR5 the figure was inactive: -0.0281; with CAGCAACCCGGGUCAUGAATT against KIRREL, inactive: -0.74.
In the case of UCUUCGUUCUGAUUCCGGUTT against CLDN17, the median seed-adjusted z-score is inactive: 0.
